Laboratory results taken from PubChem BioAssay AID216 (DTP/NCI, 2004).
The list shows only some results of the screen, not a fair sample: it is rich in T/C values a quarter to a half above the control, in often repeated tests (any T/C) and in doses without a T/C. Other doses and runs of a compound stand elsewhere. T/C gives the treated animals as a percentage of the vehicle group. Some entries give survivors of the animals treated and no T/C: the source files T/C as zero there, which appears to mark a toxic dose or a test without result, not a measured value. Some doses without a T/C left all or most animals alive at the check, yet need not have been tolerated: the source hardly ever lists a survival T/C far under the control, and the zero likely stands for such cases as well. Survivors were counted at the toxicity check, usually on the fifth day, unless a day is given; later deaths do not show. Schedules are NCI's codes, read here as Q, the interval in days (D) or hours (H), X, the number of doses. Some entries hold several experiments; the values are given in rising order. Some schedules carry Z or #; the key to these is not given. Some molecules as drawn cover several salts, stereoisomers or complexes of the source; a dose is that of the sample tested. For survival time, the PubChem record calls one and a half times the control and up active, and a quarter to a half above the control has no call in these data; cut-offs in other NCI protocols can differ. Brackets with × give the number of equal values in this list. Some T/C values carry the count of animals alive at the toxicity check (mostly the fifth day); where none is given, no animal had died by that day.

Test system: BDF1 mice, P288 leukemia ip, survival T/C
Assay: NCI In Vivo Anticancer Drug Screen. Data for tumor model P288 Lymphocytic Leukemia (intraperitoneal) in B6D2F1 (BDF1) mice
Details: T/C endpoint: survival time, mean or median, higher T/C = longer survival
Description: The antitumor activity of compounds was measured in mice bearing transplantable tumors. Survival or tumor size were measured and the results are expressed as the measurement made in the treated group (T) divided by the measurement made in the vehicle treated control group (C). The tumor model used in this assay is P288 Lymphocytic Leukemia (intraperitoneal) in B6D2F1 (BDF1) mice

[1] = dose: 2.5 mg/kg/injection, schedule: Q01DX010 (ip), vehicle: saline
[2] = dose: 10.0 mg/kg/injection, schedule: Q01DX010 (ip), vehicle: saline
[3] = dose: 20.0 mg/kg/injection, schedule: Q01DX010 (ip), vehicle: saline
[4] = dose: 62.5 mg/kg/injection, schedule: Q01DX010 (ip), vehicle: saline
[5] = dose: 125.0 mg/kg/injection, schedule: Q01DX010 (ip), vehicle: saline
[6] = dose: 500.0 mg/kg/injection, schedule: Q01DX010 (ip), vehicle: saline
[7] = dose: 40.0 mg/kg/injection, schedule: Q01DX010 (ip), vehicle: saline
[8] = dose: 160.0 mg/kg/injection, schedule: Q01DX010 (ip), vehicle: saline
[9] = dose: 250.0 mg/kg/injection, schedule: Q01DX010 (ip), vehicle: saline
[10] = dose: 500.0 mg/kg/injection, schedule: Q01DX Z (ip), vehicle: carboxymethylcellulose (CMC)
[11] = dose: 1000.0 mg/kg/injection, schedule: Q01DX Z (ip), vehicle: carboxymethylcellulose (CMC)
[12] = dose: 125.0 mg/kg/injection, schedule: Q01DX Z (ip), vehicle: carboxymethylcellulose (CMC)
[13] = dose: 50.0 mg/kg/injection, schedule: Q01DX Z (ip), vehicle: carboxymethylcellulose (CMC)

NC(Cc1ccc(N(CCCl)CCCl)cc1)C(=O)O (centres undefined)
survivor count (dose: 1.25 mg/kg/injection, schedule: Q01DX Z (ip), vehicle: carboxymethylcellulose (CMC)): 6 of 6
T/C [1]: 125 and 130 % of control
survivor count (dose: 2.5 mg/kg/injection, schedule: Q01DX Z (ip), vehicle: carboxymethylcellulose (CMC)): 6 of 6
survivor count (dose: 5.0 mg/kg/injection, schedule: Q01DX Z (ip), vehicle: carboxymethylcellulose (CMC)): 6 of 6
T/C (dose: 8.0 mg/kg/injection, schedule: Q01DX010 (ip), vehicle: saline): 127 % of control
T/C [2]: 130 % of control
survivor count (dose: 10.0 mg/kg/injection, schedule: Q01DX Z (ip), vehicle: carboxymethylcellulose (CMC)): 6 of 6
survivor count [3]: 6 of 6
survivor count (dose: 20.0 mg/kg/injection, schedule: Q01DX Z (ip), vehicle: carboxymethylcellulose (CMC)): 5 of 6 and 6 of 6

CCN(CCNc1ccc(C)c2sc3cc(Cl)ccc3c(=O)c12)CC(C)O (centres undefined)
T/C [4]: 125 % of control
T/C [5]: 125 % of control
survivor count [6]: 4 of 6

COc1cc(-c2ccc(Nc3ccccc3C(=O)O)c(OC)c2)ccc1N
T/C [7]: 129 % of control
survivor count [8]: 2 of 7

OCC1OC(n2cnc3c(Cl)ncnc32)C(O)C1O (centres undefined)
T/C [4]: 88 % of control (2×)
survivor count [4]: 6 of 6
T/C [5]: 88 % of control (2×)
survivor count [5]: 6 of 6
T/C [9]: 88 and 94 % of control
survivor count [9]: 6 of 6
T/C [6]: 88 (2×) and 88 % of control [5 of 6 alive]
survivor count [6]: 6 of 6
survivor count [10]: 5 of 6
survivor count [11]: 6 of 6

O=c1[nH]c(=O)n(C2CC(O)C(CO)O2)cc1I (centres undefined)
T/C [5]: 127 % of control
T/C [12]: 129 % of control
survivor count [12]: 6 of 6
T/C [9]: 133 % of control
survivor count (dose: 250.0 mg/kg/injection, schedule: Q01DX Z (ip), vehicle: carboxymethylcellulose (CMC)): 6 of 6
T/C [6]: 127 % of control
survivor count [10]: 6 of 6
survivor count [11]: 5 of 6

C=C1C[C@H]2[C@@H]3C=C(C)C4=CC(=O)CC[C@]4(C)[C@H]3CC[C@]2(C)[C@@]1(OC(C)=O)C(C)=O
survivor count (dose: 250.0 mg/kg/injection, schedule: Q01DX010 (sc), vehicle: steroid suspending solution): 6 of 6
survivor count (dose: 500.0 mg/kg/injection, schedule: Q01DX010 (sc), vehicle: steroid suspending solution): 6 of 6

C[n+]1c2ccccc2nc2c(N)cc(N)cc21
survivor count [13]: 2 of 6

Nc1nc(=S)c2[nH]cnc2[nH]1
T/C (dose: 1.0 mg/kg/injection, schedule: Q01DX Z (ip), vehicle: carboxymethylcellulose (CMC)): 125 % of control
T/C (dose: 1.25 mg/kg/injection, schedule: Q01DX010 (ip), vehicle: other): 142 and 147 % of control
T/C (dose: 2.5 mg/kg/injection, schedule: Q01DX010 (ip), vehicle: other): 136 % of control
survivor count (dose: 4.0 mg/kg/injection, schedule: Q01DX Z (ip), vehicle: carboxymethylcellulose (CMC)): 6 of 6
survivor count (dose: 8.0 mg/kg/injection, schedule: Q01DX Z (ip), vehicle: carboxymethylcellulose (CMC)): 6 of 6
survivor count (dose: 10.0 mg/kg/injection, schedule: Q01DX010 (ip), vehicle: other): 6 of 6
survivor count (dose: 16.0 mg/kg/injection, schedule: Q01DX Z (ip), vehicle: carboxymethylcellulose (CMC)): 6 of 6
survivor count (dose: 32.0 mg/kg/injection, schedule: Q01DX Z (ip), vehicle: carboxymethylcellulose (CMC)): 6 of 6

Nc1c(Br)cc2c(c1Br)Cc1cc([N+](=O)[O-])ccc1-2
survivor count [9]: 5 of 6

Clc1ccc(C(c2ccccc2Cl)C(Cl)Cl)cc1 (centres undefined)
survivor count (dose: 50.0 mg/kg/injection, schedule: Q01DX Z (sc), vehicle: steroid suspending solution): 40 of 60
survivor count (dose: 100.0 mg/kg/injection, schedule: Q01DX Z (sc), vehicle: steroid suspending solution): 4 of 6

CC(=O)N(C)C
survivor count (dose: 62.0 mg/kg/injection, schedule: Q01DX Z (ip), vehicle: saline): 6 of 6
T/C [4]: 105 % of control
survivor count [4]: 6 of 6
T/C [5]: 88 % of control
survivor count [5]: 5 of 6 and 6 of 6
T/C [9]: 88 and 94 % of control (2×)
survivor count [9]: 6 of 6
T/C [6]: 90, 94, 100, 105 % of control
survivor count (dose: 1000.0 mg/kg/injection, schedule: Q01DX Z (ip), vehicle: saline): 6 of 6

O=C(Nc1ccc(C2=NCCN2)cc1)c1ccc(C(=O)Nc2ccc(C3=NCCN3)cc2)c(Cl)c1
T/C (dose: 4.0 mg/kg/injection, schedule: Q01DX010 (ip), vehicle: other): 128 and 129 % of control
survivor count (dose: 7.5 mg/kg/injection, schedule: Q01DX Z (ip), vehicle: water): 6 of 6
T/C (dose: 30.0 mg/kg/injection, schedule: Q01DX Z (ip), vehicle: water): 130 % of control [5 of 6 alive]
survivor count (dose: 60.0 mg/kg/injection, schedule: Q01DX Z (ip), vehicle: water): 0 of 6

O=[n+]1c2c(n([O-])c3ccccc31)-c1cccc3cccc-2c13
survivor count (dose: 25.0 mg/kg/injection, schedule: Q01DX010 (ip), vehicle: saline): 6 of 6

C[C@H](N)C(=O)N[C@@H]1[C@H]2C(=C(O)C[C@@H](O)[C@@H]2O)C(=O)O[C@@H]1C
T/C (dose: 1200.0 mg/kg/injection, schedule: Q01DX010 (ip), vehicle: saline): 131 % of control

O=c1cnn(C2OC(CO)C(O)C2O)c(=O)[nH]1 (centres undefined)
T/C (dose: 400.0 mg/kg/injection, schedule: Q01DX010 (ip), vehicle: saline): 127 % of control
T/C (dose: 800.0 mg/kg/injection, schedule: Q01DX010 (ip), vehicle: saline): 125 % of control [5 of 6 alive]

S=c1nc[nH]c2nc[nH]c12
survivor count (dose: 5.0 mg/kg/injection, schedule: Q01DX010 (ip), vehicle: alkali diluted with saline): 5 of 6
survivor count (dose: 10.0 mg/kg/injection, schedule: Q01DX010 (ip), vehicle: alkali diluted with saline): 6 of 6
T/C (dose: 100.0 mg/kg/injection, schedule: Q01DX Z (ip), vehicle: other): 126 % of control

S=P(N1CCOCC1)(N1CC1)N1CC1
survivor count (dose: 1.6 mg/kg/injection, schedule: Q01DX Z (ip), vehicle: carboxymethylcellulose (CMC)): 5 of 6
survivor count [1]: 6 of 6
survivor count (dose: 5.0 mg/kg/injection, schedule: Q01DX010 (ip), vehicle: saline): 6 of 6
survivor count [2]: 6 of 6
survivor count [3]: 5 of 6
survivor count [13]: 3 of 6

OCC1OC(n2cnc3c(=S)nc[nH]c32)C(O)C1O (centres undefined)
T/C [3]: 94, 100, 117 % of control
survivor count [3]: 6 of 6
T/C [7]: 88 [5 of 6 alive], 94, 105 % of control
survivor count [7]: 6 of 6
T/C (dose: 80.0 mg/kg/injection, schedule: Q01DX010 (ip), vehicle: saline): 88, 90, 94 % of control (2×)
T/C [8]: 90, 94 [5 of 6 alive], 100, 105 % of control
survivor count [10]: 6 of 6
